Laboratory results: PubChem BioAssay AID1259308 (NCATS, 2017)

- Aim: 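Knock-downs that increase output of a recombinant reporter protein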 (primary screen)
- Cells: human HEK293 embryonic kidney cells stably expressing firefly luciferase (HEK-CMV-Luc2-Hygro)
- Knock-down reagent: single siRNA against human genes, 0.8 pmol siRNA per well
- Timing: 72 h
- Measured: 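Luciferase light (ONE-Glo) measured on one replicate plate set and viability (CellTiter-Glo) on the other, scaled to a negative control siRNA, with robust z-scores and luciferase per cell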
- Direction: total luciferase, z-score and total luciferase, % of control: higher = more reporter protein produced; luciferase per cell, z-score: higher = more reporter output per viable cell; viable cells, % of control: higher = more viable cells
- Rule for the call: 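An siRNA counts as active if its total luciferase robust z-score exceeds 3; genes with two or more such siRNAs out of three were retested with fresh siRNAs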
- Meaning of the calls: active = raised luciferase; inactive = no rise
The whole screen tested about 59,000 reagents; shown is an unselected part. Of all reagents, about 1,510 (2.6%) were called active. 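Calls use total luciferase alone and ignore viability, so some active siRNAs may act by altering cell number.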 Reagents against one gene are numbered here.

target gene	siRNA no.	total luciferase, z-score	total luciferase, % of control	luciferase per cell, z-score	viable cells, % of control	activity call
GVINP1	1	1.41	110	0.964	95.4	inactive
GVINP1	2	1.65	115	1.69	82	inactive
GVINP1	3	0.176	85.4	0.322	87.7	inactive
EXOC6	1	-1.07	60.6	-0.907	85.9	inactive
EXOC6	2	0.412	90.1	0.0498	99.3	inactive
EXOC6	3	0.342	88.7	-0.00651	99.3	inactive
JADE3	1	0.928	100	0.223	106	inactive
JADE3	2	0.163	85.1	-0.086	97.3	inactive
JADE3	3	0.0584	83	0.253	86.8	inactive
ADAM29	1	0.801	97.8	0.725	90.3	inactive
ADAM29	2	-0.642	69.1	-1.14	104	inactive
ADAM29	3	0.061	83.1	-0.183	97.4	inactive
TMPRSS5	1	0.855	98.9	0.46	97.9	inactive
TMPRSS5	2	0.476	91.3	0.152	98.1	inactive
TMPRSS5	3	-0.499	72	-0.197	84.7	inactive
PSMC3	1	-0.697	68	1.77	47.7	inactive
PSMC3	2	-1.8	46.2	2.47	26.9	inactive
PSMC3	3	-0.46	72.7	2	48	inactive

The list goes on; the last 5 above are carried over.
target gene	siRNA no.	total luciferase, z-score	total luciferase, % of control	luciferase per cell, z-score	viable cells, % of control	activity call
TMPRSS5	2	0.476	91.3	0.152	98.1	inactive
TMPRSS5	3	-0.499	72	-0.197	84.7	inactive
PSMC3	1	-0.697	68	1.77	47.7	inactive
PSMC3	2	-1.8	46.2	2.47	26.9	inactive
PSMC3	3	-0.46	72.7	2	48	inactive
CALR	1	0.0465	82.8	0.0416	91.5	inactive
CALR	2	1.27	107	1.49	81	inactive
CALR	3	0.929	100	1.11	83.6	inactive
ARHGEF16	1	0.267	87.2	1.04	74.1	inactive
ARHGEF16	2	0.521	92.2	1.47	69.9	inactive
ARHGEF16	3	-0.141	79.1	-0.597	103	inactive
ERCC6	1	0.985	101	0.878	90	inactive
ERCC6	2	0.504	91.9	-0.203	108	inactive
ERCC6	3	0.94	101	0.211	106	inactive
DNAJA2	1	0.79	97.6	1.4	75.4	inactive
DNAJA2	2	-0.829	65.4	-1.15	99	inactive
DNAJA2	3	0.133	84.5	0.0996	92	inactive
MNX1-AS1	1	1.18	105	0.944	91.8	inactive
MNX1-AS1	2	-0.0817	80.3	-0.544	104	inactive
MNX1-AS1	3	1.26	107	1.61	78.3	inactive
BIK	1	-0.856	64.9	-1.26	101	inactive
BIK	2	1.85	119	2.08	76.6	inactive
BIK	3	-0.218	77.6	-0.786	107	inactive
ZNF606	1	-0.736	67.2	0.102	73.2	inactive
ZNF606	2	1.28	107	0.749	98.5	inactive
ZNF606	3	0.0551	83	-0.465	105	inactive
